Earlier results, collected in patent publication US20100076037A1, “Methods of Treating Neuropathic Pain with Agonists of PPAR-gamma” (priority 2006, published 2010).
For at least one compound, name, drawing or mass did not settle the structure. Some of these results come from one statement about several compounds together.

Legend:
PPARalpha target protein = conditions: HepG2, 71 microM, proteomic methods; cited from earlier work
[1] = cited from earlier work
type 2 diabetic patients = conditions: 45 mg, cited from earlier work
[2] = system: rats subjected to spinal cord injury; conditions: cited from earlier work
[3] = system: human apoB/CETP double-transgenic mouse; conditions: tesaglitazar 1 microM/kg/day for 2 weeks; cited from earlier work
rats = conditions: intrathecal; cited from earlier work
[4] = intrathecal, cited from earlier work

CC(C)(Oc1ccc(CCNC(=O)c2ccc(Cl)cc2)cc1)C(=O)O [bezafibrate]
induction of a known PPARalpha target protein (PPARalpha target protein): 3- to 4 fold

Cc1oc(-c2ccccc2)nc1CCOc1ccc(CC2SC(=O)NC2=O)c2sccc12 (centres unmarked) [edaglitazone]
basal rates of glycogen synthesis [1]: did not affect

CCc1ccc(CCOc2ccc(CC3SC(=O)NC3=O)cc2)nc1 (centres unmarked) [pioglitazone]
decrease of mean fasting plasma glucose, placebo-corrected (type 2 diabetic patients; 12 weeks): 38.5 mg/dL
increase in HDL-cholesterol (type 2 diabetic patients): 5.8%
increase in VLDL-cholesterol (type 2 diabetic patients): 6.4%
reduction in LDL-cholesterol (type 2 diabetic patients): 4.4%
reduction in TGs (type 2 diabetic patients): 7.6%
reduction in free fatty acids (type 2 diabetic patients): 21.8%
BBB scores vs vehicle group ([2]; 3 to 42 days after SCI): significantly higher
thermal latency of paw withdrawal vs baseline ([2]; 28 days after SCI): no change

CN(CCOc1ccc(CC2SC(=O)NC2=O)cc1)c1ccccn1 (centres unmarked) [rosiglitazone]
plasma TGs, apoB100 and plasma CETP activity [3]: no such effect
pain behavior (rats): reduction in pain behavior
mechanical allodynia (von Frey) ([4]; 7 days post-SNI): reduced
cold allodynia (acetone) [4]: reduced
